Experimental data: PMC4821246
These are yes or no findings as the source states them, for the method shown. Binding seen in cells or lysates may run through a third protein. These calls come from enrichment with a bait or labelling near it, and not all partners need be listed.

Amino acid sequences for entries named in this document (tags omitted). A change or cut given only in a name is not applied to a line headed by its entry. Chains listed by the source or under a name are the forms on record and can include a tag or linker.
Flag-tagged Citron kinase (Flag::CIT-K) (O14578, form named): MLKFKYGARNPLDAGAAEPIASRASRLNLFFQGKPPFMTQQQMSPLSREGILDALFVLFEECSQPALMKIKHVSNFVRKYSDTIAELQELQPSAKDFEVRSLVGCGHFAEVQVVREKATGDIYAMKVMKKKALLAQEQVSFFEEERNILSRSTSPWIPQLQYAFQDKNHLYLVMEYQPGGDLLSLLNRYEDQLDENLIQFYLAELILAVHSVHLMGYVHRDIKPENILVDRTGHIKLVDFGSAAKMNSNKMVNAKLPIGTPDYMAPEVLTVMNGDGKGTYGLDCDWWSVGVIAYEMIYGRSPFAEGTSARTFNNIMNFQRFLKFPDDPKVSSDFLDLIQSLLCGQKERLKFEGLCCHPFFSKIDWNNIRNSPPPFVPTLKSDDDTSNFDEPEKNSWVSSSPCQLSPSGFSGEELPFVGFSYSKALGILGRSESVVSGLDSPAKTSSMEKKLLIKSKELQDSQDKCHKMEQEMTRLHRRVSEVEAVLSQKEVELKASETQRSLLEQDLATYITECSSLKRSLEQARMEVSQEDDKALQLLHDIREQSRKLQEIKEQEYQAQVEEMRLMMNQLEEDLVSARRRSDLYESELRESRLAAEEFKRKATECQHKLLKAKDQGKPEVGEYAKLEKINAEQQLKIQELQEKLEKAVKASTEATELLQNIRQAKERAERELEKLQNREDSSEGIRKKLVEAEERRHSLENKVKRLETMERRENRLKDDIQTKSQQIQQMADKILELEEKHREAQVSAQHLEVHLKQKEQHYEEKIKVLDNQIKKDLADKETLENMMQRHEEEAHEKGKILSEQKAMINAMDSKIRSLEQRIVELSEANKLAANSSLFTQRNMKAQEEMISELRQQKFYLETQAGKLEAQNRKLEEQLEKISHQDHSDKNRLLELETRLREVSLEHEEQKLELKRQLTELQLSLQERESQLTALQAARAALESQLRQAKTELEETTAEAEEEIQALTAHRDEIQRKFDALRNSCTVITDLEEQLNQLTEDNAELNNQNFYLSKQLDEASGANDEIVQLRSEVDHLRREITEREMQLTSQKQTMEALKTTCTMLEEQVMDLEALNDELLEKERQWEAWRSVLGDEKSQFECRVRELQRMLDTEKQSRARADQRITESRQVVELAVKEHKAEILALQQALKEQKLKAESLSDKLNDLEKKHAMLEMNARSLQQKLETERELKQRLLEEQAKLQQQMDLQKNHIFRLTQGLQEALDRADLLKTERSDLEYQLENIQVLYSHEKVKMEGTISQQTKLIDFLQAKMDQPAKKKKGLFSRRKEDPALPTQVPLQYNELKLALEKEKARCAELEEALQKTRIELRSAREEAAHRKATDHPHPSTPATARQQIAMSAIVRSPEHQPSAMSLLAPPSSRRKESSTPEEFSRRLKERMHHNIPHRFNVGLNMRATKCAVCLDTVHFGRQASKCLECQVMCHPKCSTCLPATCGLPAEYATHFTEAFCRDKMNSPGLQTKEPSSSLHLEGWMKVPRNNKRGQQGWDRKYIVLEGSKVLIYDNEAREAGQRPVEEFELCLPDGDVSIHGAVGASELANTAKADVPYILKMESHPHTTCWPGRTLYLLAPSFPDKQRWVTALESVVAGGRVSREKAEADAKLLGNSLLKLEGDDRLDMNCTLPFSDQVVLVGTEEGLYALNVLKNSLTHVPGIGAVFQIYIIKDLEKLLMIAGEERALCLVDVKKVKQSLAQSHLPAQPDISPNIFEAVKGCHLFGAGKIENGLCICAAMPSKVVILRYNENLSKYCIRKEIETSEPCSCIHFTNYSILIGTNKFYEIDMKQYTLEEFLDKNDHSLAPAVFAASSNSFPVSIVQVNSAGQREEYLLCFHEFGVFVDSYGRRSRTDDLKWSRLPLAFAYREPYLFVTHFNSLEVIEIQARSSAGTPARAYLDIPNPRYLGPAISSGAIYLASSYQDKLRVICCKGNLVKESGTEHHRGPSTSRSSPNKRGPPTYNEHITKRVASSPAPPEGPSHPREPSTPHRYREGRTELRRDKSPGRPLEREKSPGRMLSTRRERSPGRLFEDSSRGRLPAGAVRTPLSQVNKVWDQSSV
UniProt Q96GD4: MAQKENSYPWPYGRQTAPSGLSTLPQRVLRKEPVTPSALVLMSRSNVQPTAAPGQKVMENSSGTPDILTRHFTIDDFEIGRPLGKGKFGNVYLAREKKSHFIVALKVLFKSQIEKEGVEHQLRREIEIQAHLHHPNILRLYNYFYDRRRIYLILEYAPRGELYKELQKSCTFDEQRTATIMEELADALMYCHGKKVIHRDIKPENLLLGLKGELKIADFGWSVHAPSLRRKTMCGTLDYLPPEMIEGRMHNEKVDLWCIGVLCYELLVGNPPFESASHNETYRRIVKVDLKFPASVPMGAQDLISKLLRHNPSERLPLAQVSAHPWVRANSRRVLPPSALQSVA
UniProt Q15058: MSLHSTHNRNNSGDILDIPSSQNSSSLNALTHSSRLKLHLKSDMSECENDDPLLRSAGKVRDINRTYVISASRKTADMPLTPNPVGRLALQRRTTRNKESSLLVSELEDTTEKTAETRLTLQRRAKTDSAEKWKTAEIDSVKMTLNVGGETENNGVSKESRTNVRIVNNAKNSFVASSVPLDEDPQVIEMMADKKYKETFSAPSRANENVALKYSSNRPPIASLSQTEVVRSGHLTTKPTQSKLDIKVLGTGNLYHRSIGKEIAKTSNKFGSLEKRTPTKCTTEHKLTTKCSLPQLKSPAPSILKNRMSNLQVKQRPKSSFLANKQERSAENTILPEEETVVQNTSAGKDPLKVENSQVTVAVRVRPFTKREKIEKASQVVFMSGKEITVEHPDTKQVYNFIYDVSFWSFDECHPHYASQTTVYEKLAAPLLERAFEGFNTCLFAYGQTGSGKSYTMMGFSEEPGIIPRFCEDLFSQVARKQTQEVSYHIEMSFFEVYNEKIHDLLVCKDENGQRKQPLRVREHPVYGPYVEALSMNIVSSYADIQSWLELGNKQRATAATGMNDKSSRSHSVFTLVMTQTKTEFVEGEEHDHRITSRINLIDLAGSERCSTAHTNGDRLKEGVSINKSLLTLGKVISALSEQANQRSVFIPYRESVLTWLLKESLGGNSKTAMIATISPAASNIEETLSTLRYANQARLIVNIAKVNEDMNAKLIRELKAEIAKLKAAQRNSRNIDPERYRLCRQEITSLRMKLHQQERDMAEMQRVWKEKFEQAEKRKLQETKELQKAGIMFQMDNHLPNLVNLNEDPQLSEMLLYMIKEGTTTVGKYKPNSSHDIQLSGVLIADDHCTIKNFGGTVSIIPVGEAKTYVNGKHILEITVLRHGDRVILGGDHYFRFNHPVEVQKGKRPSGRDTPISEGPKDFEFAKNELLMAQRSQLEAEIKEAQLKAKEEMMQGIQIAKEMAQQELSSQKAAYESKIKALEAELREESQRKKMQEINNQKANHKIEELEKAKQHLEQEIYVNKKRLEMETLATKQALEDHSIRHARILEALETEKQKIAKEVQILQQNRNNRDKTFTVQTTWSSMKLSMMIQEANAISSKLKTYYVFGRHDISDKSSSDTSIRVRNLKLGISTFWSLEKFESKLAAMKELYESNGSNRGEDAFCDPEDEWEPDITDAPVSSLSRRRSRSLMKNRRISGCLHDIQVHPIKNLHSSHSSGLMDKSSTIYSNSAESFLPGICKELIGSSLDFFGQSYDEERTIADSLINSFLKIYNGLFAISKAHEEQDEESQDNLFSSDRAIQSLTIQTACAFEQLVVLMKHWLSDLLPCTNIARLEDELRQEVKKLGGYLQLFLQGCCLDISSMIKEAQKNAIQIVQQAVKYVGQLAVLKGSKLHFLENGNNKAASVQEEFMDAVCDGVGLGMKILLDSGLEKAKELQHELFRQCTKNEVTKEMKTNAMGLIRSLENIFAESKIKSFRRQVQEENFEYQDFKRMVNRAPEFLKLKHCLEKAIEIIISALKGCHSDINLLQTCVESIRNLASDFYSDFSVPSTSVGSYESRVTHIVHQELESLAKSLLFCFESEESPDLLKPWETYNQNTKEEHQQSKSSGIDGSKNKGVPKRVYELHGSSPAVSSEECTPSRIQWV
UniProt O95235: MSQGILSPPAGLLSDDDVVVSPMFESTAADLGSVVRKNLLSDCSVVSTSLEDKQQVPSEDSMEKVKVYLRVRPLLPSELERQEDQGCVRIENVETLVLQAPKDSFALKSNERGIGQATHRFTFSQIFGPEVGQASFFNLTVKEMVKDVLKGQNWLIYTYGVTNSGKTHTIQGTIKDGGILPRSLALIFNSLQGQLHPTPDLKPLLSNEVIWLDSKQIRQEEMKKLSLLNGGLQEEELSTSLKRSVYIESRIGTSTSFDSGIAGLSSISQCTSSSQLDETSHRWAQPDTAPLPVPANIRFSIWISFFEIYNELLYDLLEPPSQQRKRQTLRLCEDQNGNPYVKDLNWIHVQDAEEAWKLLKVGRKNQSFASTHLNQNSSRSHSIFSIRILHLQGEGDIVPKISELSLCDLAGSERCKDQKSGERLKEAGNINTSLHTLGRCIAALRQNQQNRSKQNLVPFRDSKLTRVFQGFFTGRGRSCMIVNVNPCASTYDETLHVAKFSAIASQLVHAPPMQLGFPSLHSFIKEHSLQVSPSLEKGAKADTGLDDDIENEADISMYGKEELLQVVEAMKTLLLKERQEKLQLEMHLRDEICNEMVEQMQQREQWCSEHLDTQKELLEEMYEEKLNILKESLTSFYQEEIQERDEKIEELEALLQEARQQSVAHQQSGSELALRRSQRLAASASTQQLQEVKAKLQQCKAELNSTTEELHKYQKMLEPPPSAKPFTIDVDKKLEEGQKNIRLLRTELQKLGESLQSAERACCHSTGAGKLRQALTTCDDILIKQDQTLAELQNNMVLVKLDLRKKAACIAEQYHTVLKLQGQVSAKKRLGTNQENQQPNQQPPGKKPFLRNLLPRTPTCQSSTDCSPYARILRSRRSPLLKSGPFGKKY
UniProt Q9NQS7: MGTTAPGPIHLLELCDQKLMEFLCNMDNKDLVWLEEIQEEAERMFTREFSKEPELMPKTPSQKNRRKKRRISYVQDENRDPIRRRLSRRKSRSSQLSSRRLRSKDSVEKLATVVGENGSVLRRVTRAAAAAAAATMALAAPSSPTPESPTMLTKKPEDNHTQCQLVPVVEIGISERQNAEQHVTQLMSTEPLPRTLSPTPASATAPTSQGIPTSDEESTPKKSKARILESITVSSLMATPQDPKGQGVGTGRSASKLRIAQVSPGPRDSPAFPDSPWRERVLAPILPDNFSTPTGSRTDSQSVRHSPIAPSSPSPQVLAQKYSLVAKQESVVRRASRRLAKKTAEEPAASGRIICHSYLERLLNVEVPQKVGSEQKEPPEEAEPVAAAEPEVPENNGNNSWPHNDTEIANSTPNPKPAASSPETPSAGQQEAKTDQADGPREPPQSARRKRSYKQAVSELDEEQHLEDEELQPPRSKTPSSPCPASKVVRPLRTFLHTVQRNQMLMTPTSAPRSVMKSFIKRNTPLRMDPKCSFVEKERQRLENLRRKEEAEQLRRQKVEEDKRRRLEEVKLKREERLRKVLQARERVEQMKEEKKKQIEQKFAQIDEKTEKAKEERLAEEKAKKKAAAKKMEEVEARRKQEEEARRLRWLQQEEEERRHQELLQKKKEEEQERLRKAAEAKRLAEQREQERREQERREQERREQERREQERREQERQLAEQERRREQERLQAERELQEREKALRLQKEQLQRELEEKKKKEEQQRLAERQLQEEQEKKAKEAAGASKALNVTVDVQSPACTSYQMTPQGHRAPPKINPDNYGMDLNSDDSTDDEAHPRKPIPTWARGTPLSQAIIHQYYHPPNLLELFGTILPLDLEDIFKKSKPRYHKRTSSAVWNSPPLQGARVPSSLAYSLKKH

B1: Borealin (endogenous) (protein, UniProt Q53HL2 1-280)
chain: MAPRKGSSRVAKTNSLRRRKLASFLKDFDREVEIRIKQIESDRQNLLKEVDNLYNIEILRLPKALREMNWLDYFALGGNKQALEEAATADLDITEINKLTAEAIQTPLKSAKTRKVIQVDEMIVEEEEEEENERKNLQTARVKRCPPSKKRTQSIQGKGKGKRSSRANTVTPAVGRLEVSMVKPTPGLTPRFDSRVFKTPGLRTPAAGERIYNISGNGSPLADSKEIFLTVPVGGGESLRLLASDLQRHSIAQLDPEALGNIKKLSNRLAQICSSIRTHK
B2: KIF23/MKLP1 (protein, UniProt Q02241 1-960)
chain: MKSARAKTPRKPTVKKGSQTNLKDPVGVYCRVRPLGFPDQECCIEVINNTTVQLHTPEGYRLNRNGDYKETQYSFKQVFGTHTTQKELFDVVANPLVNDLIHGKNGLLFTYGVTGSGKTHTMTGSPGEGGLLPRCLDMIFNSIGSFQAKRYVFKSNDRNSMDIQCEVDALLERQKREAMPNPKTSSSKRQVDPEFADMITVQEFCKAEEVDEDSVYGVFVSYIEIYNNYIYDLLEEVPFDPIKPKPPQSKLLREDKNHNMYVAGCTEVEVKSTEEAFEVFWRGQKKRRIANTHLNRESSRSHSVFNIKLVQAPLDADGDNVLQEKEQITISQLSLVDLAGSERTNRTRAEGNRLREAGNINQSLMTLRTCMDVLRENQMYGTNKMVPYRDSKLTHLFKNYFDGEGKVRMIVCVNPKAEDYEENLQVMRFAEVTQEVEVARPVDKAICGLTPGRRYRNQPRGPVGNEPLVTDVVLQSFPPLPSCEILDINDEQTLPRLIEALEKRHNLRQMMIDEFNKQSNAFKALLQEFDNAVLSKENHMQGKLNEKEKMISGQKLEIERLEKKNKTLEYKIEILEKTTTIYEEDKRNLQQELETQNQKLQRQFSDKRRLEARLQGMVTETTMKWEKECERRVAAKQLEMQNKLWVKDEKLKQLKAIVTEPKTEKPERPSRERDREKVTQRSVSPSPVPLSSNYIAQISNGQQLMSQPQLHRRSNSCSSISVASCISEWEQKIPTYNTPLKVTSIARRRQQEPGQSKTCIVSDRRRGMYWTEGREVVPTFRNEIEIEEDHCGRLLFQPDQNAPPIRLRHRRSRSAGDRWVDHKPASNMQTETVMQPHVPHAITVSVANEKALAKCEKYMLTHQELASDGEIETKLIKGDIYKTRGGGQSVQFTDIETLKQESPNGSRKRRSSTVAPAQPDGAESEWTDVETRCSVAVEMRAGSQLGPGYQHHAQPKRKKP
B3: RacGAP1 (protein, UniProt Q9H0H5 1-632)
chain: MDTMMLNVRNLFEQLVRRVEILSEGNEVQFIQLAKDFEDFRKKWQRTDHELGKYKDLLMKAETERSALDVKLKHARNQVDVEIKRRQRAEADCEKLERQIQLIREMLMCDTSGSIQLSEEQKSALAFLNRGQPSSSNAGNKRLSTIDESGSILSDISFDKTDESLDWDSSLVKTFKLKKREKRRSTSRQFVDGPPGPVKKTRSIGSAVDQGNESIVAKTTVTVPNDGGPIEAVSTIETVPYWTRSRRKTGTLQPWNSDSTLNSRQLEPRTETDSVGTPQSNGGMRLHDFVSKTVIKPESCVPCGKRIKFGKLSLKCRDCRVVSHPECRDRCPLPCIPTLIGTPVKIGEGMLADFVSQTSPMIPSIVVHCVNEIEQRGLTETGLYRISGCDRTVKELKEKFLRVKTVPLLSKVDDIHAICSLLKDFLRNLKEPLLTFRLNRAFMEAAEITDEDNSIAAMYQAVGELPQANRDTLAFLMIHLQRVAQSPHTKMDVANLAKVFGPTIVAHAVPNPDPVTMLQDIKRQPKVVERLLSLPLEYWSQFMMVEQENIDPLHVIENSNAFSTPQTPDIKVSLLGPVTTPEHQLLKTPSSSSLSQRVRSTLTKNTPRFGSKSKSATNLGRQGNFFASPMLK

Target: Flag-tagged Citron kinase (Flag::CIT-K) (human) (UniProt O14578)
Experiment: affinity purification with mass spectrometry; Flag::CIT-K captured on anti-FLAG M2 magnetic beads from extracts of HeLa Kyoto cells synchronized in telophase (thymidine-nocodazole block and release, RO3306); 4°C; extraction buffer 50 mM HEPES pH 7.5, 100 mM KAc, 150 mM NaCl, 2 mM MgCl2, 1 mM EGTA, 0.5% NP-40; LC-MS/MS; compared with Flag alone

binding, binds:
Aurora B (endogenous) (from UniProt Q96GD4 1-344)
KIF14 (from UniProt Q15058 1-1648)
KIF20A/MKLP2 (from UniProt O95235 1-890)
INCENP (endogenous) (from UniProt Q9NQS7 1-918)
B1
B2
B3
